Reference: PubChem BioAssay AID1347423 (Functional Genomics Laboratory (NCATS/FGL), 2020)
Out of some 52,000 sequences screened, about 210 (0.4%) were called active.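 The calls were made as follows: active = gene whose silencing raises cell survival under the drug, median off-target-corrected z-score across its silencing RNAs 2 or more; inactive = the rest.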 Some of the results follow.

assay: Resistance to Poly (ADP-Ribose) Polymerase inhibitor: Gene Identification via Genome-wide siRNA Screen; conditions: mouse BRCA2 R2336H ES cells, olaparib, CellTiter-Glo viability; stronger effect = higher value
Procedure, shortened: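 Mouse BRCA2 R2336H ES cells were reverse-transfected with siRNA (20 nM final), treated at 48 h with 500 nM olaparib, and read by CellTiter-Glo after 72 h. Scores: MAD-based z per siRNA, median per gene, seed off-target correction.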

Row | Sequence | z-score
1 | CCUACUAUAGUACCAACCATT against Rnf111 | inactive: -1.36
2 | GGCACCCUCAAGAAAGCGUTT against Nol6 | inactive: -0.473
3 | GGUCCAAUCGACAACACUATT against Usp33 | inactive: 2.9
4 | GGAGGUCCAGAAGAAUUAUTT against Magmas | inactive: 0.877
5 | CCUGCGUACGAAUUAAAGGTT against 2700059L22Rik | inactive: 0.748
6 | GUCCCACUGUCCAGUUACATT against C630010N09 | inactive: -1.62
7 | GCAGACCAUGGCCUCAGAUTT against Sh3bp1 | inactive: -0.95
8 | GCCAUGAGGUCUGUUCUUATT against A130030D10Rik | inactive: 0.817
9 | GCUGCGCAGUUUAGAAGAGTT against Rab24 | inactive: 0.0743
10 | GGUUGUGAUCUUGAAACUUTT against 4930451A13Rik | inactive: -1.44
11 | GGAGAAGUACAACGCAGCGTT against Wnt7b | inactive: 0.625
12 | GGCCUCCAGAAACAACUCGTT against Ndst2 | inactive: 1.44
13 | CCAGCUACCAGCUGUUUAATT against Txn1 | inactive: -1.41
14 | GGACGACUACAACUACUACTT against Slc18a3 | inactive: 0.184
15 | GGAGACUAUGAAAAAAUCCTT against Anxa1 | inactive: 0.643
16 | CCGUUAUAUCUGCCAGUUUTT against Mrcl | inactive: -1.05
17 | GGAUGCUGAAGUAAUAGUGTT against Tbc1d15 | inactive: 0.187
18 | GCUUCUCAAAUCUAGGAUCTT against Kcnj2 | inactive: 1.72
19 | GGACAAUUGUCGACUGUUCTT against Thbs3 | inactive: 1.22
20 | GCCAGUCAUCUUUGUAGUCTT against Olfr411 | inactive: -0.727
21 | CCAAAGAUACCAUUUUGCATT against 2210415F13Rik | inactive: 0.57
22 | GGAAGAAGUUCAAGAUUGATT against Bap1 | inactive: -2.94
23 | CGGCUCUUUCUUGUGGAUATT against Ggta1 | inactive: 0.188
24 | GGGAGUGCCAAAGUCGAAUTT against D16Ertd472e | inactive: -0.299
25 | GGUGCUGUUCCAUUUCUAUTT against 4930521A18Rik | inactive: 0.0166
26 | GGGAUGGAUUUAGAUAUAATT against 1110057H19Rik | inactive: 0.634

Row | Sequence | z-score
27 | GGAGGUAGAAAAGACAAAATT against Jrk | inactive: -0.689
28 | GGCCACAGCAUCAUCAAUGTT against 1200013A08Rik | inactive: 0.494
29 | GGCAGAUGCGUAUCUCAAUTT against Gpr39 | inactive: 0.479
30 | CCACAUGACCUACUUUUCCTT against 4632412N22Rik | inactive: 0.432
31 | CCCUCUGGCUAAUAAAUGATT against 4930546H06Rik | inactive: -1.62
32 | CCAAUGGGAACAGUCCUGATT against Ela2 | inactive: -1.94
33 | GGUUAGAGGAAAGGUUUAUTT against Htr1f | inactive: -0.668
34 | GGCACAAGGCCUUUAGCACTT against Olfr583 | inactive: 0.124
35 | GGGAGUCUUUUUGUUCCCUTT against 2700050C12Rik | inactive: -1.21
36 | GGGUACAGUUAGAUUUUUUTT against Dutp | inactive: -0.542
37 | GCCAAUAAUUGUCACACAUTT against Gpr97 | inactive: 0.468
38 | GGGAUUCCCAAGGAUGAAGTT against Ghrh | inactive: 0.0542
39 | GGCAUUGACGAGGAUGACCTT against Supt3h | inactive: 0.988
40 | GCCUUGUCAUAUGGGUUCCTT against Timm17b | inactive: 0.712
41 | GGUUGCUGGAUGUCAUCUCTT against Hpn | inactive: 1.44
42 | GGGUCUGAUCACUUAUAUUTT against BC003322 | inactive: -0.142
43 | GGAUGAAAGUUGUAUGUAUTT against Ctsk | inactive: 1.65
44 | GGCCUGAACAAAGUUACAUTT against Slc22a7 | inactive: 2
45 | GCUUCUGUCAUAAUGAUAUTT against Pramel6 | inactive: -0.657
46 | GGAAAACCCUGAGCAAGAGTT against Olfr916 | inactive: -1.79
47 | GGGUGCAAACAAAAUGAUGTT against Pgm2 | inactive: 0.505
48 | CGGGCACAUAAUUUACCAATT against Rfx4 | inactive: -0.644
49 | GGUACUCCUAGAACUCUACTT against 2410002F23Rik | inactive: -0.521
50 | GCAGUUAGUGUUUUUUGACTT against Card12 | inactive: 0.358
51 | GGCUAAAAUCUAUUUAUCGTT against Zfp312 | inactive: 0.203
52 | ACUCCCAUGUUGAAUCCAUTT against Olfr1202 | inactive: 1.54

Row | Sequence | z-score
53 | GGUUACCGCUAUCGUCAAGTT against Sufu | inactive: -0.997
54 | GGAAGGAAGAAGACAAUAATT against 1110001K21Rik | inactive: 1.05
55 | CGUUAAUUGCCCUCAAAGATT against Spon1 | inactive: 0.624
56 | GGCUCUUGUUGCCUUGUGUTT against Crabp1 | inactive: -1.89
57 | GGUCCUAACCGACAUGUCUTT against Vrk1 | inactive: -0.147
58 | GGACAUUGUUGUUCUUGGUTT against Psma7 | inactive: -3.35
59 | CCUAUACGUGCACCAAUGGTT against Srpx2 | inactive: -2.05
60 | GCCGGAAUCCUGUGGAAUCTT against Csrp2bp | inactive: -0.743
61 | GCUGGCACAAGGCAAAACCTT against Drd1a | inactive: 0.938
62 | GGCUCAAACGAACAUAUCGTT against 2810429O05Rik | inactive: -0.789
63 | GGAUGAGUCCAAUCUUCUCTT against Anapc4 | inactive: -2.24
64 | GGACAAUUUACAAAGAUGCTT against Rnmt | inactive: 2.65
65 | GGUGAAAGGUUCUUUAACCTT against BC020188 | inactive: -0.206
66 | GGAGGUUACAUAACAGGUGTT against Sh3d1B | inactive: 0.75
67 | GGAAUUCAAGAAUGCACAGTT against Jarid2 | inactive: -0.315
68 | GGAUCACACUAGUAUUUUCTT against Sertad2 | inactive: -0.122
69 | GGAAGAGUUACAGUUGAUUTT against Chc1l | inactive: -0.0171
70 | CCAAACGAUUUAUAAUCAGTT against 2610034N24Rik | inactive: -2.05
71 | GCCCAUUGAGUUUGAUUCATT against Itgav | inactive: -0.677
72 | GGUGAAGCUAUUUUUCUCATT against 9130012B15Rik | inactive: 1.23
73 | GGUGAACAGUUGAUUUCAUTT against 6330419J24Rik | inactive: -1.64
74 | GGUGAAUACCAGAAGUAAATT against Slc6a8 | inactive: -0.485
75 | GGAAGCAGCCAAGAAGUUATT against Olfr259 | inactive: -0.402
76 | GGAGAACUGCUUCCACAUGTT against 3110037K17Rik | inactive: -0.658
77 | GCUACAAUUGUCUAAAUCCTT against Slc25a20 | inactive: 0.515
78 | GGAAGAAGAAGUGUCACUATT against Wasf2 | inactive: -1.62

Row | Sequence | z-score
79 | CCAGAACCGUUACUUAGACTT against Bet1l | inactive: -1.06
80 | GCCUCUCAACAUGAAUUAATT against LOC432988 | inactive: 1.59
81 | GGAACCACAUGGACACACUTT against D230037D09Rik | inactive: -0.47
82 | CGAGAUGUUUAUUCAACAUTT against Tcf23 | inactive: 1.04
83 | GGCUCCACACGAUUGUUAGTT against Gne | inactive: -1.12
84 | GGUUGUUGGUCUUCUGUGATT against Nme3 | inactive: -0.788
85 | GGAUCUACAUGCUUCUCAGTT against 1700018B24Rik | inactive: 0.448
86 | GGUGCAGAAUGCAAUGGAUTT against Ing3 | inactive: -2.61
87 | CCUCCACAUUUAUUUGCUATT against Mbtd1 | inactive: 0.311
88 | GGAGGUAACGCAUGUUACATT against 4930483J18Rik | inactive: 0.189
89 | GGACCUCUGUGAGGAAGUGTT against Prkcz | inactive: -0.658
90 | CCCUGAAGAAGUUUGAUACTT against AW146020 | inactive: 0.469
91 | GGAUCAUUGAUGUUGUCUATT against Rps8 | inactive: -2.73
92 | GGUUCAUCUGUACAAAAUCTT against Zfp110 | inactive: 0.767
93 | GGCCUUACAGAGGAAUAUCTT against 4933439F18Rik | inactive: 0.184
94 | GGUAGUUAGGUACCAUUUGTT against B930008A12Rik | inactive: -0.226
95 | GGGAAGAUUGUGCAAAUGUTT against Zfp386 | inactive: -1.13
96 | GGCCCACUUAUGAUGUACATT against Eef2 | inactive: -0.272
97 | GGCCUUGUUUUCAUGCCUGTT against BC031140 | inactive: -0.814
98 | CCCAUUUGAAAUUAGGGUATT against AI452372 | inactive: -0.851
99 | GAGUCCUUGGGACAUUCUCTT against Olfr168 | inactive: -0.663
100 | GGUUUCUACAAACAAGCGUTT against 5430411K16Rik | inactive: -0.822
101 | GCACCGGGCUGAACUUUACTT against Lhcgr | inactive: 0.4
102 | GGUUUGUGGUGAACUUUCATT against Lgals9 | inactive: -1.5
103 | CGAUCAUGAAUCCUCAAACTT against Olfr828 | inactive: -0.276
